Publication PMC7042231
No constants are given. Whether binding was seen depends on the method and setting. In cells and extracts the contact can be indirect. Some results given as binding are weak or reduced against the parent protein; the word gives no strength. Sequences can lack the tags named with a protein.

Sequences of proteins named here, by UniProt entry; tags and fusion partners are left off. A change or cut given only in a name is not applied to a line headed by its entry. A line that says so, or that is headed by a name, gives the form on record, which may keep a tag or linker.
ASCC1, 3xFLAG-tagged (Q8N9N2-2, form named): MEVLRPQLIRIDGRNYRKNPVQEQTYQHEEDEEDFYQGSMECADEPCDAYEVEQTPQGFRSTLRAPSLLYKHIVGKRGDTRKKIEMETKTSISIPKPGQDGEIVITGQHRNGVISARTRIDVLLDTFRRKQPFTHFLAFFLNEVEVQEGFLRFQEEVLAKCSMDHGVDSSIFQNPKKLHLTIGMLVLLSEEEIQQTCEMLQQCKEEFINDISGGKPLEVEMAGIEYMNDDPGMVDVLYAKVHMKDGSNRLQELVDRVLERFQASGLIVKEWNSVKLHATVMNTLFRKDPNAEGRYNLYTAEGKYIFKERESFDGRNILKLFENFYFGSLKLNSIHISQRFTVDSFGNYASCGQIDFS
UniProt Q8N3C0: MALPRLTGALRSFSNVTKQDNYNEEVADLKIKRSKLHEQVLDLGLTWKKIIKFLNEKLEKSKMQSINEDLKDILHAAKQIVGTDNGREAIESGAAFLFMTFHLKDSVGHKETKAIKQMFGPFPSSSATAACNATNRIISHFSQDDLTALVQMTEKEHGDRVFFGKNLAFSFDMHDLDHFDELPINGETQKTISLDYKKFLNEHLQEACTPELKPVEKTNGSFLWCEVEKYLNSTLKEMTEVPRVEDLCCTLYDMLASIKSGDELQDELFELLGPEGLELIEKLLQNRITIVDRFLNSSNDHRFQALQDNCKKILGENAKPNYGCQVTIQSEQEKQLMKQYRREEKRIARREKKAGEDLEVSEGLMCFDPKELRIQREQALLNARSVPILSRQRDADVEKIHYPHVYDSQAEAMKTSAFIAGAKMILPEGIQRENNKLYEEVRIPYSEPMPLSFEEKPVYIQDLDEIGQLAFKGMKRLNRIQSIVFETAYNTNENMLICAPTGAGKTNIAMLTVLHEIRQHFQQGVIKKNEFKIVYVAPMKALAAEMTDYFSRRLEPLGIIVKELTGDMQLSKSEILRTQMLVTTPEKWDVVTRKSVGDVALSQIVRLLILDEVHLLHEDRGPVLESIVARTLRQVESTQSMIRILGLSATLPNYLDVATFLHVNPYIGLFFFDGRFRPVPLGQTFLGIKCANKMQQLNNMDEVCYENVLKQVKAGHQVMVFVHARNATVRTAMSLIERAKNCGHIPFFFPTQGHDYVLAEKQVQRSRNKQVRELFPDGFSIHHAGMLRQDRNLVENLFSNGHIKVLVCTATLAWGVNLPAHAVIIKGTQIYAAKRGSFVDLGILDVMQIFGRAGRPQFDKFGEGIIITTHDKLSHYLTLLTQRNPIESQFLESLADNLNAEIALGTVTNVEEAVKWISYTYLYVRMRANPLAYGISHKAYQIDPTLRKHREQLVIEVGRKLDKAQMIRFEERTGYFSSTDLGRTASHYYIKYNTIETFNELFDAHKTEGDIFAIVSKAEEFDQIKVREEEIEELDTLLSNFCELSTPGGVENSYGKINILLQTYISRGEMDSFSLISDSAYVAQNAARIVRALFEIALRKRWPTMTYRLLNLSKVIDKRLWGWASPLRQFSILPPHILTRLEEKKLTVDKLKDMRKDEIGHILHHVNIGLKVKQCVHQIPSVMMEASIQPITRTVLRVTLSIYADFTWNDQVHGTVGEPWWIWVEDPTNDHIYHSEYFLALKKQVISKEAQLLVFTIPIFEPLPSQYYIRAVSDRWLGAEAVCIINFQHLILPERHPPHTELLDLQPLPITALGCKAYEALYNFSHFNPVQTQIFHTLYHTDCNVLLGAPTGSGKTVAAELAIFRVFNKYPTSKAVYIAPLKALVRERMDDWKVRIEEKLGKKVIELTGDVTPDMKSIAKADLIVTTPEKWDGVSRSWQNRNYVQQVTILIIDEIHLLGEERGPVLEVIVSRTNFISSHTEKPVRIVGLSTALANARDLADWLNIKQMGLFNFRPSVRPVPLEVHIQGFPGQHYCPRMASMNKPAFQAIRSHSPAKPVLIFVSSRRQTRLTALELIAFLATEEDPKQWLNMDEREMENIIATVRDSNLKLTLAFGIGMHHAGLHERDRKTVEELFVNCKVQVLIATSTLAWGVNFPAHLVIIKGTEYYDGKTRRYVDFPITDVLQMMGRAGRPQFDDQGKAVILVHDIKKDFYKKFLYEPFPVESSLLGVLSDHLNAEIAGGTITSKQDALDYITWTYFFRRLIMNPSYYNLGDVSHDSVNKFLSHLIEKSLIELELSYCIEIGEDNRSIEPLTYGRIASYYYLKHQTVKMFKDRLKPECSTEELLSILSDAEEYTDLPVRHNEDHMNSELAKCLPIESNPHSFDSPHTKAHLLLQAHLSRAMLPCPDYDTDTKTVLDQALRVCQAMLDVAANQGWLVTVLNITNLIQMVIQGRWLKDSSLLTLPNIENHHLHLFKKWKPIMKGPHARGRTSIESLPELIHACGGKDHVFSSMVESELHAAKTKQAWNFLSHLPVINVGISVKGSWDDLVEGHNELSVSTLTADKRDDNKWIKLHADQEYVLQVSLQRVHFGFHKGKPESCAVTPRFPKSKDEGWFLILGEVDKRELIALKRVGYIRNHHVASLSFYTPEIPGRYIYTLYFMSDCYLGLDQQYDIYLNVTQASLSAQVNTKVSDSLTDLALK

Tests used:
[1] = molecular target: T1, TRIP4 (TR-interacting protein 4 / ASC-1), 3xFLAG-tagged (human) (UniProt Q15650); experiment: co-IP; one FLAG-tagged bait overexpressed with the other proteins HA-tagged in HEK293T; lysate in LB100 (50 mM Tris-HCl pH 7.5, 100 mM NaCl, 10 mM MgCl2, 2% NP-40); anti-FLAG antibody beads, eluted with FLAG peptide, blots anti-FLAG and anti-HA; ASCC3, ASCC2 and TRIP4 also in KD control and ASCC1 knock-down cells (Fig. 4B-D)
T1 sequence: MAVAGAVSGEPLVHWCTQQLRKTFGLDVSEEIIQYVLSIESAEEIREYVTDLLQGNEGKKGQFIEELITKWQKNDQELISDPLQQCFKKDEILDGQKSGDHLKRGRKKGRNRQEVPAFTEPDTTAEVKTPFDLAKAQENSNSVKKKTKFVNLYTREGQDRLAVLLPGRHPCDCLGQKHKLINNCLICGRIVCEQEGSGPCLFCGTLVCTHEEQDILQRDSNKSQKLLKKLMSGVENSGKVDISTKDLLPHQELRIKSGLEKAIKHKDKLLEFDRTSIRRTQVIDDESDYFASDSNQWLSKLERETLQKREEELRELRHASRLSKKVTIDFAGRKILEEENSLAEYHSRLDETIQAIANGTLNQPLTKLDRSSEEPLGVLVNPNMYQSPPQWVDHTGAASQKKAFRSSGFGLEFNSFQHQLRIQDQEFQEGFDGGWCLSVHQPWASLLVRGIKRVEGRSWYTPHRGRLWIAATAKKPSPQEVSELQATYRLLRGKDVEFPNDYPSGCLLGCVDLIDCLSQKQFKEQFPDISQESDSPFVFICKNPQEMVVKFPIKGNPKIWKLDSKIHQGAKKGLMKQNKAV

[2] = molecular target: T2, ASCC2, 3xFLAG-tagged (human) (UniProt Q9H1I8); experiment: as above
T2 sequence: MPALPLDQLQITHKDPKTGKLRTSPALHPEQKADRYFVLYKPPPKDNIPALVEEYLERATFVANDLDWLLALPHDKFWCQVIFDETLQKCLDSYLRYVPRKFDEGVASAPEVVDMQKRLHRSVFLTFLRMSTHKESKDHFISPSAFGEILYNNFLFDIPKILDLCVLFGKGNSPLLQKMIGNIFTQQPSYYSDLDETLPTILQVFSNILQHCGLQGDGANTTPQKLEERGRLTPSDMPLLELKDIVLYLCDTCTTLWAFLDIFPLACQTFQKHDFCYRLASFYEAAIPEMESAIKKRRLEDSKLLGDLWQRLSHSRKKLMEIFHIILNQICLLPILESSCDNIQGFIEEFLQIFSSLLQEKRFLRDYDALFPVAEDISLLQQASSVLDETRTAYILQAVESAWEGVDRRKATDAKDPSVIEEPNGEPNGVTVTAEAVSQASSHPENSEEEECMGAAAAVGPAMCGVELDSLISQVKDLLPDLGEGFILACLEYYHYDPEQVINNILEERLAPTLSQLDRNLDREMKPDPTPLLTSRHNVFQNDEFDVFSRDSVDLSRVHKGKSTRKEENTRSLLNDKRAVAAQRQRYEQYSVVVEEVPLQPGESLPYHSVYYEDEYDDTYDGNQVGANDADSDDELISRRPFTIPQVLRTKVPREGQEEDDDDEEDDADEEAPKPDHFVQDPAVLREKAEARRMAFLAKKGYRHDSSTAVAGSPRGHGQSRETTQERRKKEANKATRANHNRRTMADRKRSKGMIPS

[3] = molecular target: ASCC1, 3xFLAG-tagged (human) (UniProt Q8N9N2); experiment: as above
[4] = molecular target: activating signal cointegrator 3 (ASCC3), 3xFLAG-tagged (human) (UniProt Q8N3C0); experiment: as above
[5] = molecular target: activating signal cointegrator 3 (ASCC3), 3xFLAG-tagged (human) (UniProt Q8N3C0); experiment: co-IP; only HA-ASCC2 (WT or Ub-m) and FLAG-ASCC3 (WT or K505R) co-transfected into HEK293T; anti-FLAG antibody beads, eluted with FLAG peptide, blots anti-FLAG and anti-HA
FLAG-ASCC3-WT (human) = FLAG-ASCC3-WT (human) (UniProt Q8N3C0); experiment: as above
[6] = molecular target: FLAG-ASCC3 K505R mutant (human) (UniProt Q8N3C0); experiment: as above

Measured: binding

activating signal cointegrator 3 (ASCC3), HA-tagged (from UniProt Q8N3C0-1 1-2202)
binds: [1] | [2] | [3]

ASCC1, HA-tagged (from UniProt Q8N9N2-2 1-357)
binds: [4] | [1] | [2]

B1: ASCC2, HA-tagged (protein, UniProt Q9H1I8-1 1-757)
chain: T2 sequence
not listed: [2]
binds: all other assays above

B2: TRIP4 (TR-interacting protein 4 / ASC-1), HA-tagged (protein, UniProt Q15650 1-581)
chain: T1 sequence
binds: [4] | [2] | [3]
